In the assay the test system is P388 leukemia ip, CD2F1 mice, survival T/C. As to the kind of experiment: NCI In Vivo Anticancer Drug Screen. Data for tumor model P388 Leukemia (intraperitoneal) in CD2F1 (CDF1) mice. To be noted: T/C endpoint: median survival time, higher T/C = longer survival.
The mark [1] stands for this setting: dose: 100.0 mg/kg/injection, schedule: Q01DX009 (ip), vehicle: saline.
The mark [2] stands for this setting: dose: 120.0 mg/kg/injection, schedule: Q01DX005 (ip), vehicle: saline with Tween-80.
Where [3] appears, read: dose: 240.0 mg/kg/injection, schedule: Q01DX005 (ip), vehicle: saline with Tween-80.
The mark [4] stands for this setting: dose: 400.0 mg/kg/injection, schedule: Q01DX001 (ip), vehicle: saline with Tween-80.
Where [5] appears, read: dose: 200.0 mg/kg/injection, schedule: Q01DX009 (ip), vehicle: saline with Tween-80.

The list does not hold the whole screen: it is rich in T/C values a quarter to a half above the control, in often repeated tests (any T/C) and in doses without a T/C. Other doses and runs of a compound stand elsewhere. T/C: endpoint of the treated group in % of that of the vehicle group. Some doses have a count of surviving animals in place of a T/C: the source holds a T/C of zero for them, seemingly a mark for toxic or unscored doses. Some survivor counts are full or nearly so, which does not show that the dose was tolerated: survival well below the control is almost never listed, so the zero probably covers shortened survival too. Counts of survivors are from the toxicity check (mostly the fifth day) where no day follows; animals may have died later. Schedules are NCI's codes, taken here to give the interval after Q, in days (D) or hours (H), and the number of doses after X. Some entries hold several experiments; the results are listed from low to high. Where survival is the endpoint, this PubChem deposit counts one and a half times the control or more as active, and values a quarter to a half above the control carry no call in these data; other NCI protocols may use other cut-offs. Some T/C values carry the count of animals alive at the toxicity check (mostly the fifth day); without a count, all were alive then.

Take `O=C1NC2(CCCCC2)C(=O)N1CCCCN(CCCl)CCCl`: the T/C was 128 % of control (dose: 3.0 mg/kg/injection, schedule: Q01DX005 (ip), vehicle: saline); 146 % of control (dose: 12.0 mg/kg/injection, schedule: Q01DX005 (ip), vehicle: saline); 127 % of control [5 of 6 alive] (dose: 12.5 mg/kg/injection, schedule: Q01DX005 (ip), vehicle: saline); 141 % of control (dose: 25.0 mg/kg/injection, schedule: Q01DX005 (ip), vehicle: saline).

Take `O=S1(=O)OC2(c3ccccc31)c1cc(Br)c(O)c(O)c1Oc1c2cc(Br)c(O)c1O`: the survivor count runs as follows: under setting [1], 0 of 6, 1 of 6, 3 of 6; (dose: 200.0 mg/kg/injection, schedule: Q01DX009 (ip), vehicle: saline) 0 of 6; (dose: 400.0 mg/kg/injection, schedule: Q01DX009 (ip), vehicle: saline) 0 of 6; (dose: 600.0 mg/kg/injection, schedule: Q01DX009 (ip), vehicle: saline) 0 of 6.

On to `Nc1nc(N)c2nc(CNc3ccc(Cl)c(Cl)c3)cnc2n1`, for which the survivor count is listed as 6 of 6 (dose: 60.0 mg/kg/injection, schedule: Q01DX005 (ip), vehicle: saline with Tween-80); 6 of 6 under setting [2]; 6 of 6 under setting [3].

With `COC(=O)C1C(O)C(C)C(O)OC1C(C)C(O)C(C)/C=C\C=C(/C)C(=O)Nc1c(C)c(OC(C)=O)c2c(c1O)C(=O)C(C)=C1OCOC(/C(C)=C/C(C)=O)=C12` (stereo not drawn), the survivor count (dose: 200.0 mg/kg/injection, schedule: Q01DX009 (ip), vehicle: Klucel (hydroxypropylcellulose) (HPC)) is 1 of 6.

For the molecule `O=C(O)c1cccnc1C(=O)Nc1cccc2ccccc12`, under setting [2], the survivor count is 3 of 6 and 5 of 6.

With `CCOC(=O)c1c[n+](C2OC(COC(=O)c3ccccc3)C(OC(=O)c3ccccc3)C2OC(=O)c2ccccc2)ccc1N` (stereo not drawn), the survivor count by setting is: (dose: 100.0 mg/kg/injection, schedule: Q01DX005 (ip), vehicle: saline with Tween-80) 1 of 6; (dose: 200.0 mg/kg/injection, schedule: Q01DX005 (ip), vehicle: saline with Tween-80) 3 of 6.

As to `CCCOC(=O)Nc1ccc2c(c1)c1c3[nH]c(=O)c4cccn4c3ccc1n2CC`, the survivor count under setting [4] is 4 of 5.

In the case of `C=CC(=NC(C)(C)C)Nc1ccc(C(=O)OCC)cc1`, the survivor count under setting [5] is 0 of 6.

In the case of `CN(C)C1=CC(=O)c2ccccc2C12CO2` (stereo not drawn), the survivor count under setting [4] is on record as 3 of 6.

For `COc1ccc(C(c2c(O)c3ccccc3oc2=O)N2CCOCC2)cc1` (stereo not drawn), the survivor count by setting is: under setting [2], 2 of 6; under setting [3], 1 of 6.

In the case of `O=S(=O)(O)O.[Cu+2].[NH-]CC1CCCC(C[NH-])C1.[NH-]CC1CCCC(C[NH-])C1` (stereo not drawn), the survivor count is, setting by setting: (dose: 100.0 mg/kg/injection, schedule: Q04DX002 (ip), vehicle: Klucel (hydroxypropylcellulose) (HPC)) 0 of 6; (dose: 200.0 mg/kg/injection, schedule: Q04DX002 (ip), vehicle: Klucel (hydroxypropylcellulose) (HPC)) 0 of 6; (dose: 400.0 mg/kg/injection, schedule: Q04DX002 (ip), vehicle: Klucel (hydroxypropylcellulose) (HPC)) 0 of 6.

Turning to `COc1cc2c(cc1OC)C(C#N)N(C(=O)c1ccccc1)C=C2` (stereo not drawn), the survivor count was 6 of 6 (dose: 1.56 mg/kg/injection, schedule: Q01DX009 (ip), vehicle: water); 6 of 6 (dose: 3.13 mg/kg/injection, schedule: Q01DX009 (ip), vehicle: water); 6 of 6 (dose: 6.25 mg/kg/injection, schedule: Q01DX009 (ip), vehicle: water); 6 of 6 (dose: 12.5 mg/kg/injection, schedule: Q01DX009 (ip), vehicle: water); 6 of 6 (dose: 25.0 mg/kg/injection, schedule: Q01DX009 (ip), vehicle: water); 6 of 6 (dose: 50.0 mg/kg/injection, schedule: Q01DX009 (ip), vehicle: water). Moreover, the survivor count is given as 6 of 6 (dose: 100.0 mg/kg/injection, schedule: Q01DX009 (ip), vehicle: water); 6 of 6 (dose: 200.0 mg/kg/injection, schedule: Q01DX009 (ip), vehicle: water); 6 of 6 (dose: 400.0 mg/kg/injection, schedule: Q01DX009 (ip), vehicle: water).

As for `Cc1ccccc1N=Cc1ccc(N(C)C)cc1`, the survivor count (dose: 400.0 mg/kg/injection, schedule: Q01DX009 (ip), vehicle: saline with Tween-80) was 6 of 6.

On to `C1=C[N-]c2c3c(ccc2=C1)=CC=C[N-]3.N#[O+].O.O=N[O-].O=N[O-].[Ru+2]`, for which the T/C is, setting by setting: (dose: 6.25 mg/kg/injection, schedule: Q04DX003 (ip), vehicle: water) 131 % of control; (dose: 12.5 mg/kg/injection, schedule: Q04DX003 (ip), vehicle: distilled water + Tween-80) 134 % of control. Besides, the survivor count by setting is: (dose: 25.0 mg/kg/injection, schedule: Q04DX003 (ip), vehicle: distilled water + Tween-80) 3 of 6; (dose: 25.0 mg/kg/injection, schedule: Q04DX003 (ip), vehicle: water) 5 of 6; (dose: 50.0 mg/kg/injection, schedule: Q04DX003 (ip), vehicle: distilled water + Tween-80) 0 of 6; (dose: 100.0 mg/kg/injection, schedule: Q04DX003 (ip), vehicle: distilled water + Tween-80) 0 of 6; (dose: 200.0 mg/kg/injection, schedule: Q04DX003 (ip), vehicle: distilled water + Tween-80) 0 of 6.

Take `O=c1c2c([nH]c3c1c1[nH]c4c(c(=O)c1c1[nH]c5c(c(=O)c31)CCCC5)CCCC4)CCCC2`: the survivor count runs as follows: (dose: 200.0 mg/kg/injection, schedule: Q04DX003 (ip), vehicle: saline with Tween-80) 6 of 6; (dose: 400.0 mg/kg/injection, schedule: Q04DX003 (ip), vehicle: saline with Tween-80) 6 of 6.

As to `O=[N+]([O-])c1cnc[nH]1`, the survivor count (dose: 400.0 mg/kg/injection, schedule: Q01DX009 (ip), vehicle: Klucel (hydroxypropylcellulose) (HPC)) was 4 of 6.

For `CN1CCN=C1c1ccc(NC(=O)c2ccc(C(=O)Nc3ccc(C4=NCCN4C)cc3)cc2)cc1`, the T/C (dose: 0.8 mg/kg/injection, schedule: Q01DX009 (ip), vehicle: saline with Tween-80) was 129 % of control; the T/C (dose: 1.5 mg/kg/injection, schedule: Q01DX009 (ip), vehicle: saline with Tween-80) was 127 % of control; the T/C (dose: 1.6 mg/kg/injection, schedule: Q01DX009 (ip), vehicle: saline with Tween-80) was 125 % of control. Also, the survivor count (dose: 12.5 mg/kg/injection, schedule: Q04DX003 (ip), vehicle: saline with Tween-80) is 6 of 6; the survivor count (dose: 25.0 mg/kg/injection, schedule: Q04DX003 (ip), vehicle: saline with Tween-80) was 1 of 6; the survivor count (dose: 100.0 mg/kg/injection, schedule: Q04DX003 (ip), vehicle: saline) is 1 of 6; the survivor count (dose: 200.0 mg/kg/injection, schedule: Q04DX003 (ip), vehicle: saline) was 0 of 6; the survivor count (dose: 400.0 mg/kg/injection, schedule: Q04DX003 (ip), vehicle: saline) was 0 of 6.

With `O=S(=O)(CCl)OCCCCOS(=O)(=O)CCl`, the T/C is, setting by setting: (dose: 25.0 mg/kg/injection, schedule: Q01DX009 (ip), vehicle: saline with Tween-80) 127 % of control; (dose: 50.0 mg/kg/injection, schedule: Q01DX009 (ip), vehicle: saline with Tween-80) 131 % of control; (dose: 100.0 mg/kg/injection, schedule: Q01DX009 (ip), vehicle: saline with Tween-80) 145 % of control [5 of 6 alive]; under setting [1], 133 % of control.

Consider `CCN(CCO)CC(C)Nc1ccc([N+](=O)[O-])c2sc3ccccc3c(=O)c12` (stereo not drawn), for which, under “dose: 12.5 mg/kg/injection, schedule: Q01DX009 (ip), vehicle: saline with Tween-80”, the T/C was 136 % of control. For the same molecule, under setting [5], the survivor count is reported as 6 of 6.

Turning to `CNC(=O)N1CC2CCC(C)(C1)OC2(C)C` (stereo not drawn), the survivor count (dose: 50.0 mg/kg/injection, schedule: Q01DX005 (ip), vehicle: Klucel (hydroxypropylcellulose) (HPC)) is reported as 6 of 6.

The values are drawn from PubChem BioAssay AID330 (DTP/NCI, 2004).
